For this assay, the target named is T1, Anillin-GFP (full-length human anillin, isoform 2, 1087 amino acids) (human), Q9NQW6.
T1 chain: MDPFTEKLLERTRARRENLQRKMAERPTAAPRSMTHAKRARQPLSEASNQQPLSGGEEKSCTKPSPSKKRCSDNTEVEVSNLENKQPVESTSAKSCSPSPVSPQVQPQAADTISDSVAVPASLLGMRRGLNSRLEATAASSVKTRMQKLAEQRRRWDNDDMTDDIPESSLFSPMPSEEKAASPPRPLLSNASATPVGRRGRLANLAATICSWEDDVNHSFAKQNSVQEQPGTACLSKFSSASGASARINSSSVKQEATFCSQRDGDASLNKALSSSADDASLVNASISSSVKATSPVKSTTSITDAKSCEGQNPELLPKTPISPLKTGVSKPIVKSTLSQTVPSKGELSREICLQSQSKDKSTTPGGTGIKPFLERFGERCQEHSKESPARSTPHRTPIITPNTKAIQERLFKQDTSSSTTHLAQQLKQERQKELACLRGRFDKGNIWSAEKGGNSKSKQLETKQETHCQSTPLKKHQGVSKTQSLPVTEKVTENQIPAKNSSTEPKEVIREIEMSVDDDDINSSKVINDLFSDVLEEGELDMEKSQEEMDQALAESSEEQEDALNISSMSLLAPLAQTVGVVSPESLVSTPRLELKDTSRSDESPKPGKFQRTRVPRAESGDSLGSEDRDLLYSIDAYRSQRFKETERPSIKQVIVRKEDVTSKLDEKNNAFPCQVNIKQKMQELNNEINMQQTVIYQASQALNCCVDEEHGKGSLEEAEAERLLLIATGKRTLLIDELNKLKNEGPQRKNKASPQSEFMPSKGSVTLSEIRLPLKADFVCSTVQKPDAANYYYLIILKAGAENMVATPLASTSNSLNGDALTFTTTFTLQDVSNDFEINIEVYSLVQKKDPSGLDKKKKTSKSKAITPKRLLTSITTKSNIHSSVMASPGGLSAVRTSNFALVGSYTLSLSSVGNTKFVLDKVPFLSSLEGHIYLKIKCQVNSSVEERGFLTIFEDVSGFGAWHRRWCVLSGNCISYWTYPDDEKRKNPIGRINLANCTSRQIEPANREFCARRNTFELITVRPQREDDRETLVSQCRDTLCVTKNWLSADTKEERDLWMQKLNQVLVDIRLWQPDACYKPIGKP
In words: mass photometry. Particulars: remark: other sources report otherwise.

The text below walks through data of article doi:10.1101/2025.01.07.631698.

Results are given in words; binding and its absence hold for the method and conditions named. Sequences can lack the tags named with a protein.

B1: Anillin-GFP (full-length human anillin, isoform 2, 1087 amino acids), Q9NQW6-2 1-1087 (protein)
chain: MDPFTEKLLERTRARRENLQRKMAERPTAAPRSMTHAKRARQPLSEASNQQPLSGGEEKSCTKPSPSKKRCSDNTEVEVSNLENKQPVESTSAKSCSPSPVSPQVQPQAADTISDSVAVPASLLGMRRGLNSRLEATAASSVKTRMQKLAEQRRRWDNDDMTDDIPESSLFSPMPSEEKAASPPRPLLSNASATPVGRRGRLANLAATICSWEDDVNHSFAKQNSVQEQPGTACLSKFSSASGASARINSSSVKQEATFCSQRDGDASLNKALSSSADDASLVNASISSSVKATSPVKSTTSITDAKSCEGQNPELLPKTPISPLKTGVSKPIVKSTLSQTVPSKGELSREICLQSQSKDKSTTPGGTGIKPFLERFGERCQEHSKESPARSTPHRTPIITPNTKAIQERLFKQDTSSSTTHLAQQLKQERQKELACLRGRFDKGNIWSAEKGGNSKSKQLETKQETHCQSTPLKKHQGVSKTQSLPVTEKVTENQIPAKNSSTEPKEVIREIEMSVDDDDINSSKVINDLFSDVLEEGELDMEKSQEEMDQALAESSEEQEDALNISSMSLLAPLAQTVGVVSPESLVSTPRLELKDTSRSDESPKPGKFQRTRVPRAESGDSLGSEDRDLLYSIDAYRSQRFKETERPSIKQVIVRKEDVTSKLDEKNNAFPCQVNIKQKMQELNNEINMQQTVIYQASQALNCCVDEEHGKGSLEEAEAERLLLIATGKRTLLIDELNKLKNEGPQRKNKASPQSEFMPSKGSVTLSEIRLPLKADFVCSTVQKPDAANYYYLIILKAGAENMVATPLASTSNSLNGDALTFTTTFTLQDVSNDFEINIEVYSLVQKKDPSGLDKKKKTSKSKAITPKRLLTSITTKSNIHSSVMASPGGLSAVRTSNFALVGSYTLSLSSVGNTKFVLDKVPFLSSLEGHIYLKIKCQVNSSVEERGFLTIFEDVSGFGAWHRRWCVLSGNCISYWTYPDDEKRKNPIGRINLANCTSRQIEPANREFCARRNTFELITVRPQREDDRETLVSQCRDTLCVTKNWLSADTKEERDLWMQKLNQVLVDIRLWQPDACYKPIGKP
For B1, the binding result is “no binding (tested: 5, 15 or 50 nM)”.
